Measurements as given in PubChem BioAssay AID330 (DTP/NCI, 2004).
The list is a part of this screen's results and no random one: it gathers tests that were run many times, whatever their T/C, doses with no T/C, and many T/C values between a quarter and a half above the control. Other doses and runs of a compound stand elsewhere. T/C: endpoint of the treated group in % of that of the vehicle group. Some doses have a count of surviving animals in place of a T/C: the source files T/C as zero there, which appears to mark a toxic dose or a test without result, not a measured value. Some doses without a T/C left all or most animals alive at the check, yet need not have been tolerated: the source hardly ever lists a survival T/C far under the control, and the zero likely stands for such cases as well. Counts of survivors are from the toxicity check (mostly the fifth day) where no day follows; animals may have died later. Schedules are NCI's codes, read here as Q, the interval in days (D) or hours (H), X, the number of doses. Some doses were run more than once; the results are listed from low to high. For survival time, this PubChem deposit counts one and a half times the control or more as active, and values a quarter to a half above the control carry no call in these data; other NCI protocols may use other cut-offs. Some T/C values are followed by the survivors on the day toxicity was checked, most often the fifth; where none is given, no animal had died by that day.

Test system: P388 leukemia ip, CD2F1 mice, survival T/C
Test: NCI In Vivo Anticancer Drug Screen. Data for tumor model P388 Leukemia (intraperitoneal) in CD2F1 (CDF1) mice
Details: T/C endpoint: median survival time, higher T/C = longer survival
[1] = dose: 200.0 mg/kg/injection, schedule: Q01DX009 (ip), vehicle: saline with Tween-80
[2] = dose: 400.0 mg/kg/injection, schedule: Q01DX009 (ip), vehicle: saline with Tween-80

COc1cc([C@@H]2c3cc4c(c(O)c3C[C@H]3COC(=O)[C@@H]32)OCO4)cc(OC)c1O was tested, and the T/C (dose: 0.12 mg/kg/injection, schedule: Q01DX009 (ip), vehicle: saline) was 129 % of control, the T/C (dose: 0.12 mg/kg/injection, schedule: Q01DX009 (ip), vehicle: suspension in saline) was 126 % of control and the T/C (dose: 0.25 mg/kg/injection, schedule: Q01DX009 (ip), vehicle: saline) was 127 % of control. The T/C (dose: 0.5 mg/kg/injection, schedule: Q01DX009 (ip), vehicle: saline) was 129 % of control, the T/C (dose: 0.5 mg/kg/injection, schedule: Q01DX009 (ip), vehicle: suspension in saline) was 136 % of control and the survivor count (dose: 2.0 mg/kg/injection, schedule: Q01DX009 (ip), vehicle: saline) was 6 of 6. The survivor count (dose: 2.0 mg/kg/injection, schedule: Q01DX009 (ip), vehicle: suspension in saline) was 5 of 6, the survivor count (dose: 4.0 mg/kg/injection, schedule: Q01DX009 (ip), vehicle: saline) was 4 of 6 and the survivor count (dose: 4.0 mg/kg/injection, schedule: Q01DX009 (ip), vehicle: suspension in saline) was 2 of 6.
For COc1ccc(C2C3=C(CCC(CN(C)C)C3=O)OC3=C2C(=O)C(CN(C)C)CC3)cc1 (stereo not drawn), the survivor count (dose: 240.0 mg/kg/injection, schedule: Q01DX005 (ip), vehicle: saline) was 0 of 6.
With O=C(COc1ccccc1)OC(=O)COc1ccccc1 the survivor count (dose: 400.0 mg/kg/injection, schedule: Q01DX009 (ip), vehicle: other) was 1 of 6.
In the case of CN(C)CCCOC1=Nc2ccccc2O/C1=C/c1cccs1, the survivor count (dose: 200.0 mg/kg/injection, schedule: Q04DX003 (ip), vehicle: saline) is reported as 0 of 6 and the survivor count (dose: 400.0 mg/kg/injection, schedule: Q04DX003 (ip), vehicle: saline) is reported as 0 of 6.
With Nc1nc2nc[nH]c2c(=O)[nH]1 the survivor count [1] was 6 of 6, the survivor count [2] was 0 of 6 and the survivor count (dose: 800.0 mg/kg/injection, schedule: Q01DX009 (ip), vehicle: saline with Tween-80) was 0 of 6. For the same compound, the survivor count (dose: 800.0 mg/kg/injection, schedule: Q01DX009 (ip), vehicle: suspension in saline) was 0 of 6, the survivor count (dose: 1600.0 mg/kg/injection, schedule: Q01DX009 (ip), vehicle: saline with Tween-80) was 0 of 6 and the survivor count (dose: 1600.0 mg/kg/injection, schedule: Q01DX009 (ip), vehicle: suspension in saline) was 0 of 6.
With CO[C@H]1C[C@@H]2CC[C@@H](C)[C@@](O)(O2)C(=O)C(=O)N2CCCC[C@H]2C(=O)O[C@H]([C@H](C)C[C@@H]2CC[C@@H](O)[C@H](OC)C2)CC(=O)[C@H](C)C=C(C)[C@@H](O)[C@@H](OC)C(=O)[C@H](C)C[C@H](C)/C=C/C=C/C=C1C the T/C (dose: 6.25 mg/kg/injection, schedule: Q01DX005 (ip), vehicle: clinical formulation) was 131 % of control, the T/C (dose: 6.25 mg/kg/injection, schedule: Q01DX009 (ip), vehicle: clinical formulation) was 141 % of control and the T/C (dose: 12.5 mg/kg/injection, schedule: Q01DX005 (ip), vehicle: clinical formulation) was 128 % of control. The T/C (dose: 12.5 mg/kg/injection, schedule: Q01DX009 (ip), vehicle: clinical formulation) was 141 % of control, the T/C (dose: 12.5 mg/kg/injection, schedule: Q01DX009 (ip), vehicle: gum acacia) was 139 % of control and the T/C (dose: 12.5 mg/kg/injection, schedule: Q01DX009 (ip), vehicle: saline with Tween-80, evaluated on day 30) was 136 % of control. The T/C (dose: 12.5 mg/kg/injection, schedule: Q01DX009 (ip), vehicle: saline with Tween-80, evaluated on day 60) was 127 % of control, the T/C (dose: 25.0 mg/kg/injection, schedule: Q01DX005 (ip), vehicle: clinical formulation) was 137 % of control and the T/C (dose: 25.0 mg/kg/injection, schedule: Q01DX009 (ip), vehicle: clinical formulation) was 135 % of control. For the same compound, the T/C (dose: 25.0 mg/kg/injection, schedule: Q01DX009 (ip), vehicle: gum acacia) was 130 % of control, the T/C (dose: 25.0 mg/kg/injection, schedule: Q01DX009 (ip), vehicle: saline with Tween-80, evaluated on day 30) was 136 % of control and the T/C (dose: 25.0 mg/kg/injection, schedule: Q01DX009 (ip), vehicle: saline with Tween-80, evaluated on day 60) was 133 % of control. For the same compound, the T/C (dose: 50.0 mg/kg/injection, schedule: Q01DX005 (ip), vehicle: clinical formulation) was 134 % of control, the T/C (dose: 50.0 mg/kg/injection, schedule: Q01DX009 (ip), vehicle: clinical formulation) was 146 % of control and the T/C (dose: 50.0 mg/kg/injection, schedule: Q01DX009 (ip), vehicle: gum acacia) was 135 % of control. For the same compound, the T/C (dose: 50.0 mg/kg/injection, schedule: Q01DX009 (ip), vehicle: saline with Tween-80, evaluated on day 30) was 140 % of control, the T/C (dose: 50.0 mg/kg/injection, schedule: Q01DX009 (ip), vehicle: saline with Tween-80, evaluated on day 60) was 131 % of control and the survivor count (dose: 100.0 mg/kg/injection, schedule: Q01DX005 (iv), vehicle: clinical formulation) was 0 of 10. For the same compound, the T/C (dose: 100.0 mg/kg/injection, schedule: Q01DX009 (ip), vehicle: clinical formulation) was 146 % of control, the T/C (dose: 100.0 mg/kg/injection, schedule: Q01DX009 (ip), vehicle: gum acacia) was 134 % of control and the T/C (dose: 100.0 mg/kg/injection, schedule: Q01DX009 (ip), vehicle: saline with Tween-80, evaluated on day 30) was 134 % of control. The T/C (dose: 100.0 mg/kg/injection, schedule: Q01DX009 (ip), vehicle: saline with Tween-80, evaluated on day 60) was 136 % of control, the T/C (dose: 200.0 mg/kg/injection, schedule: Q01DX001 (ip), vehicle: saline with Tween-80) was 142 % of control and the survivor count (dose: 200.0 mg/kg/injection, schedule: Q01DX001 (iv), vehicle: clinical formulation) was 0 of 10. For the same compound, the survivor count (dose: 200.0 mg/kg/injection, schedule: Q01DX005 (ip), vehicle: clinical formulation) was 1 of 10, the survivor count (dose: 200.0 mg/kg/injection, schedule: Q01DX005 (iv), vehicle: clinical formulation) was 0 of 10 and the survivor count (dose: 200.0 mg/kg/injection, schedule: Q01DX009 (ip), vehicle: clinical formulation) was 2 of 10. The T/C (dose: 200.0 mg/kg/injection, schedule: Q01DX009 (ip), vehicle: gum acacia) was 141 % of control, the T/C [1] was 128 % of control and the T/C (dose: 400.0 mg/kg/injection, schedule: Q01DX001 (ip), vehicle: saline with Tween-80) was 128 and 136 % of control. For the same compound, the T/C (dose: 400.0 mg/kg/injection, schedule: Q01DX009 (ip), vehicle: gum acacia) was 129 % of control, the T/C (dose: 400.0 mg/kg/injection, schedule: Q01DX009 (ip), vehicle: saline with Tween-80, evaluated on day 30) was 138 % of control and the T/C (dose: 400.0 mg/kg/injection, schedule: Q01DX009 (ip), vehicle: saline with Tween-80, evaluated on day 60) was 125 % of control. For the same compound, the T/C (dose: 600.0 mg/kg/injection, schedule: Q01DX001 (ip), vehicle: saline with Tween-80) was 136 % of control, the T/C (dose: 800.0 mg/kg/injection, schedule: Q01DX001 (ip), vehicle: saline with Tween-80) was 128 and 136 % of control and the T/C (dose: 1600.0 mg/kg/injection, schedule: Q01DX001 (ip), vehicle: saline with Tween-80) was 133 % of control.
C=CCc1ccccc1C was tested, and the survivor count [2] was 2 of 6.
In the case of COC1/C=C/OC2(C)Oc3c(C)c(O)c4c(c3C2=O)C(N)=C(NC2CC2)C(=NC(=O)/C(C)=C\C=C\C(C)C(O)C(C)C(O)C(C)C(OC(C)=O)C1C)C4=O (stereo not drawn), the survivor count (dose: 200.0 mg/kg/injection, schedule: Q01DX009 (ip), vehicle: Klucel (hydroxypropylcellulose) (HPC)) is reported as 2 of 6.
In the case of CC([NH-])C[NH-].[Br][Pt+2][Br] (stereo not drawn), the T/C (dose: 12.5 mg/kg/injection, schedule: Q04DX002 (ip), vehicle: saline with Tween-80) is reported as 145 % of control, the survivor count (dose: 25.0 mg/kg/injection, schedule: Q04DX002 (ip), vehicle: saline with Tween-80) is reported as 4 of 6 and the survivor count (dose: 50.0 mg/kg/injection, schedule: Q04DX002 (ip), vehicle: saline with Tween-80) is reported as 1 of 6 and 6 of 6.
For C[C@H]1O[C@H](C)[C@H](O)C2=C1C(=O)c1ccccc1C2=O, the T/C (dose: 100.0 mg/kg/injection, schedule: Q04DX002 (ip), vehicle: saline with Tween-80) was 94, 103 [5 of 6 alive], 105, 128 % of control, the survivor count (dose: 200.0 mg/kg/injection, schedule: Q04DX002 (ip), vehicle: saline with Tween-80) was 2 of 6 and 3 of 6 and the survivor count (dose: 400.0 mg/kg/injection, schedule: Q04DX002 (ip), vehicle: saline with Tween-80) was 5 of 6.
